For one experiment, the target named is flag-FIP200 (human) (UniProt Q8TDY2). Briefly: affinity purification with mass spectrometry; pulldown in cells transfected with flag-FIP200 or flag-FIP200 K1133R, MS analysis of the total proteins bound to FIP200 (Figure S3).
The target in experiment [1] is flag-FIP200 K1133R (human) (UniProt Q8TDY2). The description is as above.
In experiment [2] the target is SET domain containing 2 (SETD2), endogenous (human (endogenous in HEK293)) (UniProt Q9BYW2). Briefly: affinity purification with mass spectrometry; SETD2 pulldown from HEK293 lysate, MS analysis (Figure S2).

Chains of the proteins cited; added tags and fusions are not shown. Lines headed by an entry give the natural chain unless they say otherwise; changes in a name come on top.
UniProt Q8TDY2: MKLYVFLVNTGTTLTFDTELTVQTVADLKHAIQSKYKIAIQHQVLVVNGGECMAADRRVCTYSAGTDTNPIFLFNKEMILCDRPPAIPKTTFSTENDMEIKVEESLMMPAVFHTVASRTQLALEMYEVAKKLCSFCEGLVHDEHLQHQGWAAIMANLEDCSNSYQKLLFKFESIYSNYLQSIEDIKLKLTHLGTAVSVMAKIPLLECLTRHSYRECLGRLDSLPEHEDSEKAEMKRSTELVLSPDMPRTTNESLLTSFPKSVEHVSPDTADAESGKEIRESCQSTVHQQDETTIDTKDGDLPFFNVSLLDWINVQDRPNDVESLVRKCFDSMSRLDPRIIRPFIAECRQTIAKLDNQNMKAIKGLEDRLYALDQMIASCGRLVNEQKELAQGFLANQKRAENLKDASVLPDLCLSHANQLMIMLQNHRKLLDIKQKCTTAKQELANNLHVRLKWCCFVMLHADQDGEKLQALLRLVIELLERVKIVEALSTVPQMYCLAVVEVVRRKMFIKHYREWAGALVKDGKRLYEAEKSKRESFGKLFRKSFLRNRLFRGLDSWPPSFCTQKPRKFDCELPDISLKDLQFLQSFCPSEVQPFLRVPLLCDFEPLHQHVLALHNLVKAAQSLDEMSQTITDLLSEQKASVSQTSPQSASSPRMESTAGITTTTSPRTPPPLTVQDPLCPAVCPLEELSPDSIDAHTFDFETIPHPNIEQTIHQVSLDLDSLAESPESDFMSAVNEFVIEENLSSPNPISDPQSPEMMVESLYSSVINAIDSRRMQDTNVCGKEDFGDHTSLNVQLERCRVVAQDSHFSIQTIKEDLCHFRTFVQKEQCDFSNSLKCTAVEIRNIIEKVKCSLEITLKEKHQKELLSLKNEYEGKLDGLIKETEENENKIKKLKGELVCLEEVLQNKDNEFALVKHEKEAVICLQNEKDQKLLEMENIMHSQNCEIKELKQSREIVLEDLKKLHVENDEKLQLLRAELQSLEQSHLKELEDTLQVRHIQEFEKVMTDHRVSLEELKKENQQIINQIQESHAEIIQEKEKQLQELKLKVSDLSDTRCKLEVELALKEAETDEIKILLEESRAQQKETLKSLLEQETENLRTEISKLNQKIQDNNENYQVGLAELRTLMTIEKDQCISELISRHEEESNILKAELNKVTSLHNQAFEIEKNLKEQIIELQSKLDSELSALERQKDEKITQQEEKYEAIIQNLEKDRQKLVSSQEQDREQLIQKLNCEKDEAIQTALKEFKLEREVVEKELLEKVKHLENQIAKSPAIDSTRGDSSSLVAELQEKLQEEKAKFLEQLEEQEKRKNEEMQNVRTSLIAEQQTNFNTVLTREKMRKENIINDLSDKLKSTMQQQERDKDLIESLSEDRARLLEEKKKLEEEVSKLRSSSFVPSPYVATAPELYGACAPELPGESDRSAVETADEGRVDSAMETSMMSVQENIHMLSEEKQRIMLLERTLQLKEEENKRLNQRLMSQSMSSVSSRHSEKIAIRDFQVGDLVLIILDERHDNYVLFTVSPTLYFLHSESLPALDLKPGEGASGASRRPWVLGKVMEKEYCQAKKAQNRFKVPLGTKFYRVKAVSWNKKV
UniProt Q9BYW2: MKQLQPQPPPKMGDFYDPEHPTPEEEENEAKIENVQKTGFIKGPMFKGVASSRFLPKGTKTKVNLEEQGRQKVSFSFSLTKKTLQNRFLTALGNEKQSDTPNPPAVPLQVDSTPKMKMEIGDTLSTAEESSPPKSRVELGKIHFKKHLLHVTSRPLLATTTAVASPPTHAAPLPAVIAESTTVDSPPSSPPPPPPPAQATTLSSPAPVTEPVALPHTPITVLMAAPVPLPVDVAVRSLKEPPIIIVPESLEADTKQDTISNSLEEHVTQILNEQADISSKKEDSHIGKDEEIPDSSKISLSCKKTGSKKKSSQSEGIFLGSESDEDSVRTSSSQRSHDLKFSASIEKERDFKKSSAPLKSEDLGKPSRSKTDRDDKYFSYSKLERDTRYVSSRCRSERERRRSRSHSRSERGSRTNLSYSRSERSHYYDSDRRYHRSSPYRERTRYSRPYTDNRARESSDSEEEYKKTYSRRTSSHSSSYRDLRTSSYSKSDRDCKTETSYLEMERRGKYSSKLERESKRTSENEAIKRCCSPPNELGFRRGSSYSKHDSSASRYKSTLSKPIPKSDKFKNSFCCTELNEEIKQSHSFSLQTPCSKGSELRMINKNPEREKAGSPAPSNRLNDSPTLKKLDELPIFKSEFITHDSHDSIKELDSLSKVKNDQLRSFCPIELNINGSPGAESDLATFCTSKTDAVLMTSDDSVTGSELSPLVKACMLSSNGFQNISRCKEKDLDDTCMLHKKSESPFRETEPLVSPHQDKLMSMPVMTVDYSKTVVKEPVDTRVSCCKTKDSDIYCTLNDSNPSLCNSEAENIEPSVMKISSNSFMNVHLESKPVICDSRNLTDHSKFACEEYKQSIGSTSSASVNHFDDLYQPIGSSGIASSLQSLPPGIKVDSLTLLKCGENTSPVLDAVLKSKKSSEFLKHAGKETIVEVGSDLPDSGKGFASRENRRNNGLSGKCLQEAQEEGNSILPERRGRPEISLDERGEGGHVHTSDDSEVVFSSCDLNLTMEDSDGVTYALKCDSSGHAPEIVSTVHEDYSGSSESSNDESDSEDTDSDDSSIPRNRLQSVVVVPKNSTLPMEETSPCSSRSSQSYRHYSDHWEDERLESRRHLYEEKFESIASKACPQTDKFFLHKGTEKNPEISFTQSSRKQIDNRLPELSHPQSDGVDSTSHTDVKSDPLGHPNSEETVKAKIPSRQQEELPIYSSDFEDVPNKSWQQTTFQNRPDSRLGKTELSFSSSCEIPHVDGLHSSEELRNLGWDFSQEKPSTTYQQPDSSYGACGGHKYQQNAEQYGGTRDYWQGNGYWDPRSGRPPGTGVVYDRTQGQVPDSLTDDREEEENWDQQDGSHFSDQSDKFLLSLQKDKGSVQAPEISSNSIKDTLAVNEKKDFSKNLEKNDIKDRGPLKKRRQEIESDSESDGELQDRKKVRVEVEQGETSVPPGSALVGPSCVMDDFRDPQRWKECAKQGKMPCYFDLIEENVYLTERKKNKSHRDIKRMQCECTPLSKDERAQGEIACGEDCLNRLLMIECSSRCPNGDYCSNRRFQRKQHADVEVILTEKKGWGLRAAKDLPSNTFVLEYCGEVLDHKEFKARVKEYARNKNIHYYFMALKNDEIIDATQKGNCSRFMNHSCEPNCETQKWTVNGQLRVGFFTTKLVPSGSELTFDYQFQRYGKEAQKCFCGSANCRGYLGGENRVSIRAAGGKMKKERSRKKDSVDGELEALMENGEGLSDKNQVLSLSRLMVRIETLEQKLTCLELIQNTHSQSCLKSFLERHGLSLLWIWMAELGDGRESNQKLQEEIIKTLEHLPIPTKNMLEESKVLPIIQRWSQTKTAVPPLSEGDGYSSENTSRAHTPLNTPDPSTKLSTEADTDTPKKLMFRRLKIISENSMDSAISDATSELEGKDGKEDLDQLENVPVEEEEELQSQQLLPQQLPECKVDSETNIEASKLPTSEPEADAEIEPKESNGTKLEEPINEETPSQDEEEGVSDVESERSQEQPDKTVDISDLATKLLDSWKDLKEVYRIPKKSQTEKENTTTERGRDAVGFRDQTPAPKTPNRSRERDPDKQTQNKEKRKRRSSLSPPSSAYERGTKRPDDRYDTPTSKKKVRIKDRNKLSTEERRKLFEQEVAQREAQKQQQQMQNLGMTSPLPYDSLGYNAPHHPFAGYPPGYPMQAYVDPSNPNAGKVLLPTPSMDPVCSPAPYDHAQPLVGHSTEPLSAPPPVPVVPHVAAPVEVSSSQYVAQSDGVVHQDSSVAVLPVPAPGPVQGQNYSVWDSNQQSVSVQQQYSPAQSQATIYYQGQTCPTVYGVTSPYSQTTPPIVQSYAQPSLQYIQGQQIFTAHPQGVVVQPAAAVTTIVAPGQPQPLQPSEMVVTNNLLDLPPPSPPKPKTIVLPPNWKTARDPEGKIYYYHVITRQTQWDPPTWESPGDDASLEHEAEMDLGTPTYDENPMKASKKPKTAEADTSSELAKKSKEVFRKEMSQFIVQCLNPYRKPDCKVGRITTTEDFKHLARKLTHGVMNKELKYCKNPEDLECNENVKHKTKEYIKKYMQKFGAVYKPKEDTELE
UniProt P19474: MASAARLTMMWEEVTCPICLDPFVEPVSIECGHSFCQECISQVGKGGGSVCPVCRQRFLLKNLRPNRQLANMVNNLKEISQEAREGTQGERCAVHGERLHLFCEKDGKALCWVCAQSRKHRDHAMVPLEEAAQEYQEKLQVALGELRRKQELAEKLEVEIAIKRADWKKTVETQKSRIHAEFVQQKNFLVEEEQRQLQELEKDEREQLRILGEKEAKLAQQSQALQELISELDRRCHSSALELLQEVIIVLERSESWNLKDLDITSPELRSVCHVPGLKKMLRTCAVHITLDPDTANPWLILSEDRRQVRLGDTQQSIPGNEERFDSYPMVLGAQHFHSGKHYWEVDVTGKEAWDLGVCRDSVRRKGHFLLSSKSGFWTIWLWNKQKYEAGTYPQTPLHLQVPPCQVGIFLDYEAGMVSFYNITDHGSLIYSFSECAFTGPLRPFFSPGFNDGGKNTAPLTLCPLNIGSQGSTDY

These are yes or no findings as the source states them, for the method shown. Binding seen in cells or lysates may run through a third protein. A yes stands for co-enrichment or nearness to the bait. Other partners may have been found.

The values below come from PMC9653720.

As for “Trim21, endogenous (from UniProt P19474 1-475) (enzyme)”, the binding entry (with flag-FIP200 (human); in experiment [1]) was “binds” in each case.
Consider “focal adhesion kinase family interacting protein of 200 kD (FIP200), endogenous (from UniProt Q8TDY2 1-1594)”, for which, in experiment [2], the binding result is reported as “binds”.
